For 1 molecule, binding results are on record in US20150147310A1.

The chains behind the UniProt entries cited, without tags or fusion partners. Residues count along the entry.
UniProt Q91ZX7, residues 20-4545: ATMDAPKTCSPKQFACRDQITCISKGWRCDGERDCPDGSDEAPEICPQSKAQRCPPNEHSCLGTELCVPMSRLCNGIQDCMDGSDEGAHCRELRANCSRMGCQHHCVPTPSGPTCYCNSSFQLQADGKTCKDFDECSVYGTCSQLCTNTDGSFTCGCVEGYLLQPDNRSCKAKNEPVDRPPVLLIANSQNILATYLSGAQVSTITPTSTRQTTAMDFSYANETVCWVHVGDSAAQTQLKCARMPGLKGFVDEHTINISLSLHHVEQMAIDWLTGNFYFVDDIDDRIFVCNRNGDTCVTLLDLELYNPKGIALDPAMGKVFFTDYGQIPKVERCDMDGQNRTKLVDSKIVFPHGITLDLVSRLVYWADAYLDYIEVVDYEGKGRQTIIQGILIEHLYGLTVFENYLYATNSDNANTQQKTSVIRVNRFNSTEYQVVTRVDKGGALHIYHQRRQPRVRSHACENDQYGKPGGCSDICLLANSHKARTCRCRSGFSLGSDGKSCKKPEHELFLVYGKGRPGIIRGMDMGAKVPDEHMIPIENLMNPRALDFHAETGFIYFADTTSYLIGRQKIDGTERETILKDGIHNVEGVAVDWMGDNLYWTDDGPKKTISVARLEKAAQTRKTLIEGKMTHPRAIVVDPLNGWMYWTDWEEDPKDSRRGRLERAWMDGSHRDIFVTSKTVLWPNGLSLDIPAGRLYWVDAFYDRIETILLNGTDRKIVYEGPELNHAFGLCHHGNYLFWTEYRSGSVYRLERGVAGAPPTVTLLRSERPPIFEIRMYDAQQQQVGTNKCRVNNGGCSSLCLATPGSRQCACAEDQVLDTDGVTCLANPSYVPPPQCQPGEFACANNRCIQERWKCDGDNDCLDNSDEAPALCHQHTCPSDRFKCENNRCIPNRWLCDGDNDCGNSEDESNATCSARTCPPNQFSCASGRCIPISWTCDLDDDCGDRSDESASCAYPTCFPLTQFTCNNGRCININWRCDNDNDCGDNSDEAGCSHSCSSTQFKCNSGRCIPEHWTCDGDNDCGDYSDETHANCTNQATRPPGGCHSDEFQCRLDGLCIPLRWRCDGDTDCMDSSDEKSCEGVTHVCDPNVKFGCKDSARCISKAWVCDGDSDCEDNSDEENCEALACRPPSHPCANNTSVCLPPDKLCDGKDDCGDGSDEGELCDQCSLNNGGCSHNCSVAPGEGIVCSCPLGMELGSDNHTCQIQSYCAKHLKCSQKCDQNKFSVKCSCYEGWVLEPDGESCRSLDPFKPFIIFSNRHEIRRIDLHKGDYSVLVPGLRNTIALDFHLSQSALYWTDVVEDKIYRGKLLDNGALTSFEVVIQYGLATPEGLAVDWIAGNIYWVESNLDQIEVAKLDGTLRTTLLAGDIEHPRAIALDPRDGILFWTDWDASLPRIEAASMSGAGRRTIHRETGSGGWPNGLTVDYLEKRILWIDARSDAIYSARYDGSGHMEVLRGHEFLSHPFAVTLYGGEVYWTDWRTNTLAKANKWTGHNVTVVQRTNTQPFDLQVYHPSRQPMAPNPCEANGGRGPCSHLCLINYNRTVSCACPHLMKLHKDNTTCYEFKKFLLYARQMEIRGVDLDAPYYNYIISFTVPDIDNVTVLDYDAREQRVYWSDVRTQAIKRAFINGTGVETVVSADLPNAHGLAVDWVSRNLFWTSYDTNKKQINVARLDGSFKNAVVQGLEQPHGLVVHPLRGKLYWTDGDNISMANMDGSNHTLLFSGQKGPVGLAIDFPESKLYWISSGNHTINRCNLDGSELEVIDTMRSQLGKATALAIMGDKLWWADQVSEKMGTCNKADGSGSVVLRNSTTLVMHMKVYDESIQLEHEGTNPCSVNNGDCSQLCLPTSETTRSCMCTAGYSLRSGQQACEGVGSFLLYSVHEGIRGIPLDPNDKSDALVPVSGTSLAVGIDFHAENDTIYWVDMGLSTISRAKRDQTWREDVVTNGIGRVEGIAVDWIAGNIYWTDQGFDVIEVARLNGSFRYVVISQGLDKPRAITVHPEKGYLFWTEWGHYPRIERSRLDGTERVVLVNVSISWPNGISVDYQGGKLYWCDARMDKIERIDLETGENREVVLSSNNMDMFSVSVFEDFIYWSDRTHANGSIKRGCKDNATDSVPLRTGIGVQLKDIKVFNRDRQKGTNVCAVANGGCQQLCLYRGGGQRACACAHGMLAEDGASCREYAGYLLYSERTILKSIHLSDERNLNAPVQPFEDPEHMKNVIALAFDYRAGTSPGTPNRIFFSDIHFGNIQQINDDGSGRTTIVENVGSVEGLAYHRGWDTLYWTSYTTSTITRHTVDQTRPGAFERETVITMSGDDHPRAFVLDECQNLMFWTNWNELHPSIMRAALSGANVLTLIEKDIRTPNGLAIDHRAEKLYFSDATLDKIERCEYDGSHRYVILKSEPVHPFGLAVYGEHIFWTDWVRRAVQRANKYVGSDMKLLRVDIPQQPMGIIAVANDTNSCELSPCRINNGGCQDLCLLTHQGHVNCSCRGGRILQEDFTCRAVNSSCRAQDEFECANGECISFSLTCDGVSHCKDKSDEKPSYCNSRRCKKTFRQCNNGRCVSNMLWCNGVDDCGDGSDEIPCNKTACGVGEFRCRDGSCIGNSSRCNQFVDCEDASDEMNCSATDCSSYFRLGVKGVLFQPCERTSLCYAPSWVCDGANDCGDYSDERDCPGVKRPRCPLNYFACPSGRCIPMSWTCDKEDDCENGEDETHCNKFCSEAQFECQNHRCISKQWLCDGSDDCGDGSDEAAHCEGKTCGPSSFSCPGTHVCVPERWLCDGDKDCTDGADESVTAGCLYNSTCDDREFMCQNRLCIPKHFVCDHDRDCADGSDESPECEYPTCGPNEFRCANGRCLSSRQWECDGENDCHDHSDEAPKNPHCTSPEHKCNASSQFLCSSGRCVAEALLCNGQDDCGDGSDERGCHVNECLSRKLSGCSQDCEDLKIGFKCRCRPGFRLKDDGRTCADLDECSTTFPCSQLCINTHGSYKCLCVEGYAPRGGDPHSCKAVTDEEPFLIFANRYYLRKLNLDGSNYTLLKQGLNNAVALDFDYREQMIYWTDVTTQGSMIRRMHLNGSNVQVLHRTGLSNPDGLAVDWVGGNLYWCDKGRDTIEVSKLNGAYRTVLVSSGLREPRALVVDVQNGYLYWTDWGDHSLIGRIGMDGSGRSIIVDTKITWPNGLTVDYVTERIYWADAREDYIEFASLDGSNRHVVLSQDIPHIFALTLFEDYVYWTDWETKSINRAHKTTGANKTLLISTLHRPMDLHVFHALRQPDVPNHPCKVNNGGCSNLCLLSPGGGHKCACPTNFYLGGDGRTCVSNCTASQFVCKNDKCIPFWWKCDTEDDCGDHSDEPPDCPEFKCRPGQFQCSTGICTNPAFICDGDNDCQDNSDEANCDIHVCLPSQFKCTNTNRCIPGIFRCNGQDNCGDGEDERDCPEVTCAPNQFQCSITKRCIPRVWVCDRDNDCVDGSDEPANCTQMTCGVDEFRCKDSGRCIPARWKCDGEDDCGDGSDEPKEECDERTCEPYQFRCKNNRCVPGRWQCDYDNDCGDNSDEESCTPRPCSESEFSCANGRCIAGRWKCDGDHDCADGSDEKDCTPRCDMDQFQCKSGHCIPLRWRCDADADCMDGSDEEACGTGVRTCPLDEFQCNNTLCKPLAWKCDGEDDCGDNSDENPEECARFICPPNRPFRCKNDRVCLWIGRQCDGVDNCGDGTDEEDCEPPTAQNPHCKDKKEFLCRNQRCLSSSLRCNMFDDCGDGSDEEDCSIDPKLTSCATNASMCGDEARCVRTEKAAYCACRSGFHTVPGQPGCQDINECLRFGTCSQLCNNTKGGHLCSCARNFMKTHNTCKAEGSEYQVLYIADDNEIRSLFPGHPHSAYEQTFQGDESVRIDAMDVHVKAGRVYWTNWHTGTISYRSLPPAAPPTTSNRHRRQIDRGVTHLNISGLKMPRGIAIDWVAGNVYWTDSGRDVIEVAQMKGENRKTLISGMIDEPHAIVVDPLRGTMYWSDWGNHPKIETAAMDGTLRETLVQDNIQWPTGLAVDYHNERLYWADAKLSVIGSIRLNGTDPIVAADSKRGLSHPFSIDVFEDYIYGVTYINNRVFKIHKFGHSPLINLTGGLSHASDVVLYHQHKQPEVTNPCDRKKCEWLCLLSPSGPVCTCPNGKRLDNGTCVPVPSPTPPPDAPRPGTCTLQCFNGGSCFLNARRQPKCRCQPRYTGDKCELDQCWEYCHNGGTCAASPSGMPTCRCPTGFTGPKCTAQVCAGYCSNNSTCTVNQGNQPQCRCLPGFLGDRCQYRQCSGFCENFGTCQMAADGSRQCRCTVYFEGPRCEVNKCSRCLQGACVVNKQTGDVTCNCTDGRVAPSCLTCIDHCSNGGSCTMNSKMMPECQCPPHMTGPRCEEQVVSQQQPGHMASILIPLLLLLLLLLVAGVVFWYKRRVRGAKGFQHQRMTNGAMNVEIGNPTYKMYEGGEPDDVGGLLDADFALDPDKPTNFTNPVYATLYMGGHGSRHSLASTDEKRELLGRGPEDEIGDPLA

No constants are given. Whether binding was seen depends on the method and setting. In cells and extracts the contact can be indirect. Some binding calls cover weakened binding; strength is not graded here. Tags and fused reporters may be left off the sequences shown.

Test [1] concerns the target LRP1 (in RAW 264.7 cells) (UniProt Q91ZX7). Description: co-immunoprecipitation from RAW 264.7 cells with anti-IDUA antibody, western blot for LRP1.
Test [2] shares this target. Description: co-immunoprecipitation, western blots (legend of FIG. 14B). (In general: A western blot detects proteins with antibodies after separation by electrophoresis.)

B1: An2-IDUA (Angiopep-2 fused to human alpha-L-iduronidase) (enzyme)
chain: TFFYGGSRGKRNNFKTEEYEAPHLVHVDAARALWPLRRFWRSTGFCPPLPHSQADQYVLSWDQQLNLAYVGAVPHRGIKQVRTHWLLELVTTRGSTGRGLSYNFTHLDGYLDLLRENQLLPGFELMGSASGHFTDFEDKQQVFEWKDLVSSLARRYIGRYGLAHVSKWNFETWNEPDHHDFDNVSMTMQGFLNYYDACSEGLRAASPALRLGGPGDSFHTPPRSPLSWGLLRHCHDGTNFFTGEAGVRLDYISLHRKGARSSISILEQEKVVAQQIRQLFPKFADTPIYNDEADPLVGWSLPQPWRADVTYAAMVVKVIAQHQNLLLANTTSAFPYALLSNDNAFLSYHPHPFAQRTLTARFQVNNTRPPHVQLLRKPVLTAMGLLALLDEEQLWAEVSQAGTVLDSNHTVGVLASAHRPQGPADAWRAAVLIYASDDTRAHPNRSVAVTLRLRGVPPGPGLVYVTRYLDNGLCSPDGEWRRLGRPVFPTAEQFRRMRAAEDPVAAAPRPLPAGGRLTLRPALRLPSLLLVHVCARPEKPPGQVTRLRALPLTQGQLVLVWSDEHVGSKCLWTYEIQFSQDGKAYTPVSRKPSTFNLFVFSPDTGAVSGSYRVRALDYWARPGPFSDPVPYLEVPVPRGPPSPGNP
On to B1, for which the binding entry in test [1] and in test [2] was “binds” throughout.
